PubChem BioAssay AID1259285, Sanger Institute, 2017
The deposit covers 794 reagents; this is a random part of them. Of all reagents, 20 (2.5%) got an active call. 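Calls rest on the drug-free arm alone and ignore synergy scores; viability ratios seem to be capped at 1.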 Unmarked entries are inactive. Not all columns of the deposit are shown. Not stated in the record: the amount of reagent, the time to read-out.

- Aim: 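Search of the kinome for kinases worth combining with drugs in colon cancer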 (primary screen)
- System: human HCC56 colorectal cancer cells
- Reagent: siRNA pool against human genes
- Challenge: DMSO vehicle, or anchor drug BYL719 at 1 µM, cetuximab at 5 µg/ml, or trametinib at 10 nM
- Read-out: 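Replicate-averaged viability relative to non-targeting siRNA, expressed as a robust z-score from controls, plus a synergy score for each of three anchor drugs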
- Direction: viability robust z-score, no drug: higher = more viable cells, weaker knock-down effect
- Rule for the call: 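a knock-down counts as essential if its viability z-score without drug is under -3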
- Meaning of the calls: active = essential without drug; inactive = no change without drug

gene | PubChem SID | viability robust z-score, no drug
LRRK2 (leucine rich repeat kinase 2) | SID152152689 | -1.13
PIP5KL1 (phosphatidylinositol-4-phosphate 5-kinase like 1) | SID56479217 | -1.19
PRKACB (protein kinase cAMP-activated catalytic subunit beta) | SID56478825 | -0.341
PRKCA (protein kinase C alpha) | SID56478672 | 0.458
PHKA2 (phosphorylase kinase regulatory subunit alpha 2) | SID56479176 | -0.578
PKN3 (protein kinase N3) | SID56478823 | 0.458
STK25 (serine/threonine kinase 25) | SID135620899 | 0.458
IP6K3 (inositol hexakisphosphate kinase 3) | SID135621241 | -0.294
IPMK (inositol polyphosphate multikinase) | SID152147042 | 0.458
PIK3CB | SID56478474 | 0.458
DCLK3 (doublecortin like kinase 3) | SID152149137 | 0.458
ACVR1B (activin A receptor type 1B) | SID56478918 | 0.458
PKDCC (protein kinase domain containing, cytoplasmic) | SID152147854 | 0.458
MAP2K7 (mitogen-activated protein kinase kinase 7) | SID56478752 | -1.14
PRKAR1B (protein kinase cAMP-dependent type I regulatory subunit beta) | SID152149404 | -0.965
PFKL (phosphofructokinase, liver type) | SID56479167 | 0.458
MAP3K8 (mitogen-activated protein kinase kinase kinase 8) | SID56478664 | -2.38
RNASEL (ribonuclease L) | SID56478962 | 0.458
CAMK1G (calcium/calmodulin dependent protein kinase IG) | SID56478930 | 0.458
EPHA6 (EPH receptor A6) | SID152153448 | -2.18
PTK6 (protein tyrosine kinase 6) | SID152152810 | 0.458
TPK1 (thiamin pyrophosphokinase 1) | SID135621256 | -0.63
FLT1 (fms related receptor tyrosine kinase 1) | SID152149290 | 0.458
NEK3 (NIMA related kinase 3) | SID152154962 | -1.84
ERBB4 (erb-b2 receptor tyrosine kinase 4) | SID135620618 | -0.944
MAGI3 | SID152154544 | 0.458
PDPK1 (3-phosphoinositide dependent protein kinase 1) | SID135620604 | 0.13
SYNCRIP (synaptotagmin binding cytoplasmic RNA interacting protein) | SID134320219 | -0.512
SGK2 (serum/glucocorticoid regulated kinase 2) | SID56478843 | -2.69
NTRK2 (neurotrophic receptor tyrosine kinase 2) | SID152152425 | 0.458
PRKCI (protein kinase C iota) | SID152150879 | 0.458
CKS1B (CDC28 protein kinase regulatory subunit 1B) | SID56478807 | 0.458
PHKA1 (phosphorylase kinase regulatory subunit alpha 1) | SID152155157 | 0.458
ZC3H11A (zinc finger CCCH-type containing 11A) | SID135624155 | 0.458
BMPR1A (bone morphogenetic protein receptor type 1A) | SID135620910 | 0.458
CDK10 (cyclin dependent kinase 10) | SID152152801 | -0.117
TTBK1 (tau tubulin kinase 1) | SID135620866 | 0.458
GRK7 (G protein-coupled receptor kinase 7) | SID135620854 | 0.458
ILK (integrin linked kinase) | SID152151227 | 0.458
ILK (integrin linked kinase) | SID152153406 | 0.458
MAP2K4 (mitogen-activated protein kinase kinase 4) | SID56478690 | 0.458
CTCF (CCCTC-binding factor) | SID135623925 | 0.458
FGFR3 (fibroblast growth factor receptor 3) | SID56478513 | 0.458
IP6K2 (inositol hexakisphosphate kinase 2) | SID56479106 | 0.458
TAF1L (TATA-box binding protein associated factor 1 like) | SID152155360 | 0.458
TTK (TTK protein kinase) | SID56478775 | 0.0345
PIK3R5 (phosphoinositide-3-kinase regulatory subunit 5) | SID152147687 | 0.458
AKT3 (AKT serine/threonine kinase 3) | SID56478465 | 0.458
EPHB6 (EPH receptor B6) | SID152155826 | -0.11
NPR2 (natriuretic peptide receptor 2) | SID152151652 | 0.458

Targets above whose gene name starts with E or e:
gene | PubChem SID | viability robust z-score, no drug
EPHA6 (EPH receptor A6) | SID152153448 | -2.18
ERBB4 (erb-b2 receptor tyrosine kinase 4) | SID135620618 | -0.944
EPHB6 (EPH receptor B6) | SID152155826 | -0.11
